Earlier results as cited in patent US9295653B2, “Controlled agglomeration” (Veloxis Pharmaceuticals A/S, priority 2001, dated 2016).

Conditions: in vivo

## COC(=O)C1=C(C)NC(C)=C(C(=O)OC)C1c1ccccc1[N+](=O)[O-] [Nifedipine]
  absorption after oral administration: rapidly and fully absorbed
